Results from PMC3171409.
Like-named read-outs stand apart in the source and are kept apart here. No constants are given. Whether binding was seen depends on the method and setting. Binding seen in cells or lysates may run through a third protein. Some results given as binding are weak or reduced against the parent protein; the word gives no strength. Tags and fused reporters may be left off the sequences shown. Each block holds one molecule with its values, some of them ahead of it.

Amino acid sequences for entries named in this document (tags omitted).
UniProt Q13546: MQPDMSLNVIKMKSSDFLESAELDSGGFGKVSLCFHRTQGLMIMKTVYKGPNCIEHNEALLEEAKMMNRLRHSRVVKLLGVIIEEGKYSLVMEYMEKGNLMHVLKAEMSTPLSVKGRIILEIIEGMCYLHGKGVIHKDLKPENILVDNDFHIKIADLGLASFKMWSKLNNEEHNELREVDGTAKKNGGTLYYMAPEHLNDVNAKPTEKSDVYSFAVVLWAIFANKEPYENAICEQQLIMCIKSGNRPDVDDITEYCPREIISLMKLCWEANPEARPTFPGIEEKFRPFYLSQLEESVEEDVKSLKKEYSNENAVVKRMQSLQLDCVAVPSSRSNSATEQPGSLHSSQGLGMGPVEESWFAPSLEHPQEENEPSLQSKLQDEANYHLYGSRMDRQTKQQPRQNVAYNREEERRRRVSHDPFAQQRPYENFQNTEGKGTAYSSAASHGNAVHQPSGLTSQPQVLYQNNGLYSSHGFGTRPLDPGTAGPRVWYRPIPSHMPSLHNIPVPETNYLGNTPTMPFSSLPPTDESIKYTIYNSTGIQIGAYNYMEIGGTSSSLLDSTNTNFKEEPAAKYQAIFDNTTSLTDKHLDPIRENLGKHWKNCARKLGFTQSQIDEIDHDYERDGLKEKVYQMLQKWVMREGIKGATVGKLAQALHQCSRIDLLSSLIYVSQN
UniProt Q9Y572: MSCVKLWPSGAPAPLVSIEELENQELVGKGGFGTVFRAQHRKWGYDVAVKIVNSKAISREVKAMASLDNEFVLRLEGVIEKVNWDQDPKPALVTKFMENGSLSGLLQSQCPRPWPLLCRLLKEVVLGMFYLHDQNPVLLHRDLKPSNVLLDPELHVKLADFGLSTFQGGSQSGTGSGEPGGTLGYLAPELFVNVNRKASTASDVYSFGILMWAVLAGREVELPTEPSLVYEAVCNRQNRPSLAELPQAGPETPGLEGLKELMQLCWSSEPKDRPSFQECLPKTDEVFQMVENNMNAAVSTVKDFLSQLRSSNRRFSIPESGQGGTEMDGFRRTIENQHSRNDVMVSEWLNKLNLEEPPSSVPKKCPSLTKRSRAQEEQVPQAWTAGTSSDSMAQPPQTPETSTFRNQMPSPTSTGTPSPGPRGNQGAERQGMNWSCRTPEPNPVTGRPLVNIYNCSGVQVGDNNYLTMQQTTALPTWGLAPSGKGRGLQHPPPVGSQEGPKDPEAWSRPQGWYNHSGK

Tests used:
GST-XIAP fusion protein [1] = molecular target: GST-XIAP fusion protein (UniProt P98170)
GST-XIAP fusion protein [2] = molecular target: GST-XIAP fusion protein (UniProt P98170); remark: listed apart in the source
GST-cIAP2 fusion protein [3] = molecular target: GST-cIAP2 fusion protein (UniProt Q13489)
GST-cIAP1 fusion protein [4] = molecular target: GST-cIAP1 fusion protein (UniProt Q13490)
GST-cIAP2 fusion protein [5] = molecular target: GST-cIAP2 fusion protein (UniProt Q13489); remark: listed apart in the source
GST-cIAP1 fusion protein [6] = molecular target: GST-cIAP1 fusion protein (UniProt Q13490); remark: listed apart in the source
[7] = molecular target: FLAG-tagged cIAP1 expressed in HEK293T cells (UniProt Q13490)
[8] = molecular target: Myc-tagged cIAP2 expressed in HEK293T cells (UniProt Q13489)

- binding (GST-XIAP fusion protein [1]): binds
- binding (GST-XIAP fusion protein [2]): binds
- binding (GST-cIAP2 fusion protein [3]): binds
- binding (GST-cIAP1 fusion protein [4]): binds
Molecule: VSV-tagged human RIP1, in vitro transcribed and translated, 35S-methionine labelled (from UniProt Q13546 1-671)

- binding (GST-XIAP fusion protein [1]): binds
- binding (GST-cIAP2 fusion protein [5]): binds
- binding (GST-cIAP1 fusion protein [6]): binds
- binding (GST-XIAP fusion protein [2]): binds
- binding (GST-cIAP2 fusion protein [3]): binds
- binding (GST-cIAP1 fusion protein [4]): binds
Molecule: VSV-tagged human RIP3, in vitro transcribed and translated, 35S-methionine labelled (from UniProt Q9Y572 1-518)

Molecule: VSV-tagged human RIP1 expressed in HEK293T cells (from UniProt Q13546 1-671)
- binding [7]: binds
- binding [8]: binds

Molecule: VSV-tagged human RIP3 expressed in HEK293T cells (from UniProt Q9Y572 1-518)
- binding [7]: binds
- binding [8]: binds

- binding (GST-XIAP fusion protein [1]): binds
- binding (GST-cIAP2 fusion protein [5]): binds
- binding (GST-cIAP1 fusion protein [6]): binds
- binding (GST-XIAP fusion protein [2]): binds
- binding (GST-cIAP2 fusion protein [3]): binds
- binding (GST-cIAP1 fusion protein [4]): binds
B1: VSV-tagged human RIP4, in vitro transcribed and translated, 35S-methionine labelled (protein, UniProt P57078 1-832)
chain: MEGDGGTPWALALLRTFDAGEFTGWEKVGSGGFGQVYKVRHVHWKTWLAIKCSPSLHVDDRERMELLEEAKKMEMAKFRYILPVYGICREPVGLVMEYMETGSLEKLLASEPLPWDLRFRIIHETAVGMNFLHCMAPPLLHLDLKPANILLDAHYHVKISDFGLAKCNGLSHSHDLSMDGLFGTIAYLPPERIREKSRLFDTKHDVYSFAIVIWGVLTQKKPFADEKNILHIMVKVVKGHRPELPPVCRARPRACSHLIRLMQRCWQGDPRVRPTFQGNGLNGELIRQVLAALLPVTGRWRSPGEGFRLESEVIIRVTCPLSSPQEITSETEDLCEKPDDEVKETAHDLDVKSPPEPRSEVVPARLKRASAPTFDNDYSLSELLSQLDSGVSQAVEGPEELSRSSSESKLPSSGSGKRLSGVSSVDSAFSSRGSLSLSFEREPSTSDLGTTDVQKKKLVDAIVSGDTSKLMKILQPQDVDLALDSGASLLHLAVEAGQEECAKWLLLNNANPNLSNRRGSTPLHMAVERRVRGVVELLLARKISVNAKDEDQWTALHFAAQNGDESSTRLLLEKNASVNEVDFEGRTPMHVACQHGQENIVRILLRRGVDVSLQGKDAWLPLHYAAWQGHLPIVKLLAKQPGVSVNAQTLDGRTPLHLAAQRGHYRVARILIDLCSDVNVCSLLAQTPLHVAAETGHTSTARLLLHRGAGKEAMTSDGYTALHLAARNGHLATVKLLVEEKADVLARGPLNQTALHLAAAHGHSEVVEELVSADVIDLFDEQGLSALHLAAQGRHAQTVETLLRHGAHINLQSLKFQGGHGPAATLLRRSKT
modifications: 35S-methionine labelled

B2: VSV-tagged human RIP4 expressed in HEK293T cells (protein, UniProt P57078 1-832)
chain: B1 chain
- binding [7]: binds
- binding [8]: binds
